Measurements reported in PubChem BioAssay AID1224830 (NIAID, 2016).
Test: 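Genes whose knock-down alters the TNF-alpha reporter response to LPS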 (primary screen). Cells: human THP-1 monocytic leukaemia cells, TNF dual-luciferase reporter clone, PMA-differentiated to macrophage-like cells. Reagents: siRNA pool against human genes, 50 nM. Time to read-out: LPS for 4 h, given about 3 days after siRNA transfection. Treatment: bacterial LPS (TLR4 ligand), 10 ng/ml. Measurement: 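TNF firefly reporter luminescence divided by renilla, normalised to the plate median, then turned into a robust z-score for each replicate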. Scale: TNF reporter robust z-score: higher = stronger TNF reporter response to LPS. Rule for the call: 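a well is active when its z-score exceeds 2.8 or falls below -1.5; control wells carry no call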.
Here is a random part of about 18,000 reagents. About 2,900 of them (16%) were called active. 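Calls are made per well; low scores hint the gene aids the LPS response, high scores that it dampens it.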 Repeated entries: four replicate wells of each siRNA pool. No sequences are given here.

gene | TNF reporter robust z-score | outcome
GNG12 (GeneID 55970) | 0.94 | inactive
GNG12 (GeneID 55970) | 0.73 | inactive
GNG12 (GeneID 55970) | -0.22 | inactive
GNG12 (GeneID 55970) | 0.21 | inactive
LIN7B (GeneID 64130) | -1.18 | inactive
LIN7B (GeneID 64130) | -1.03 | inactive
LIN7B (GeneID 64130) | -1.21 | inactive
LIN7B (GeneID 64130) | -0.78 | inactive
EPHB6 (GeneID 2051) | -1.18 | inactive
EPHB6 (GeneID 2051) | -0.98 | inactive
EPHB6 (GeneID 2051) | -1.29 | inactive
EPHB6 (GeneID 2051) | 0.4 | inactive
MED25 (GeneID 81857) | 0.04 | inactive
MED25 (GeneID 81857) | -0.06 | inactive
MED25 (GeneID 81857) | -0.36 | inactive
MED25 (GeneID 81857) | -0.34 | inactive
LTBR (GeneID 4055) | 0.11 | inactive
LTBR (GeneID 4055) | 0.89 | inactive
LTBR (GeneID 4055) | 1.12 | inactive
LTBR (GeneID 4055) | 1.06 | inactive
IQCF2 (GeneID 389123) | 2.09 | inactive
IQCF2 (GeneID 389123) | 1.97 | inactive
IQCF2 (GeneID 389123) | 1.87 | inactive
IQCF2 (GeneID 389123) | 4.59 | active
ASPHD1 (GeneID 253982) | -1.16 | inactive
ASPHD1 (GeneID 253982) | -0.9 | inactive
ASPHD1 (GeneID 253982) | -0.1 | inactive
ASPHD1 (GeneID 253982) | 0.03 | inactive
THUMPD2 (GeneID 80745) | 1.93 | inactive
THUMPD2 (GeneID 80745) | 3.7 | active
THUMPD2 (GeneID 80745) | 3.52 | active
THUMPD2 (GeneID 80745) | 4.64 | active
ZNF248 (GeneID 57209) | 0.28 | inactive
ZNF248 (GeneID 57209) | -0.74 | inactive
ZNF248 (GeneID 57209) | -0.81 | inactive
ZNF248 (GeneID 57209) | -0.4 | inactive
CISH (GeneID 1154) | -0.15 | inactive
CISH (GeneID 1154) | 2.47 | inactive
CISH (GeneID 1154) | -0.94 | inactive
CISH (GeneID 1154) | 3.56 | active
DGKH (GeneID 160851) | 1.3 | inactive
DGKH (GeneID 160851) | -0.33 | inactive
DGKH (GeneID 160851) | -0.35 | inactive
DGKH (GeneID 160851) | 1.87 | inactive
SPATA46 (GeneID 284680) | 0.54 | inactive
SPATA46 (GeneID 284680) | 0.11 | inactive
SPATA46 (GeneID 284680) | -0.01 | inactive
SPATA46 (GeneID 284680) | -0.04 | inactive
BCOR (GeneID 54880) | 0.18 | inactive
BCOR (GeneID 54880) | -0.25 | inactive
BCOR (GeneID 54880) | -0.36 | inactive
BCOR (GeneID 54880) | -0.76 | inactive
TP53 (GeneID 7157) | -1.03 | inactive
TP53 (GeneID 7157) | -0.37 | inactive
TP53 (GeneID 7157) | -0.57 | inactive
TP53 (GeneID 7157) | 0.06 | inactive
GSX2 (GeneID 170825) | 1.01 | inactive
GSX2 (GeneID 170825) | 0.5 | inactive
GSX2 (GeneID 170825) | -0.06 | inactive
GSX2 (GeneID 170825) | 0.64 | inactive
AP4S1 (GeneID 11154) | 3.16 | active
AP4S1 (GeneID 11154) | -0.33 | inactive
AP4S1 (GeneID 11154) | 0.12 | inactive
AP4S1 (GeneID 11154) | -0.3 | inactive
TICAM2 (GeneID 353376) | -0.83 | inactive
TICAM2 (GeneID 353376) | 0.64 | inactive
TICAM2 (GeneID 353376) | -0.29 | inactive
TICAM2 (GeneID 353376) | 0.1 | inactive
SLC16A9 (GeneID 220963) | -0.66 | inactive
SLC16A9 (GeneID 220963) | 0.89 | inactive
SLC16A9 (GeneID 220963) | 0.78 | inactive
SLC16A9 (GeneID 220963) | 0.37 | inactive
ZBTB18 (GeneID 10472) | 0.02 | inactive
ZBTB18 (GeneID 10472) | -0.28 | inactive
ZBTB18 (GeneID 10472) | 0.55 | inactive
ZBTB18 (GeneID 10472) | 1.22 | inactive
GNL1 (GeneID 2794) | 0.12 | inactive
GNL1 (GeneID 2794) | 0.15 | inactive
GNL1 (GeneID 2794) | 0.5 | inactive
GNL1 (GeneID 2794) | 0.42 | inactive
TMEM176A (GeneID 55365) | -0.91 | inactive
TMEM176A (GeneID 55365) | -0.45 | inactive
TMEM176A (GeneID 55365) | -0.42 | inactive
TMEM176A (GeneID 55365) | -0.27 | inactive
CUEDC2 (GeneID 79004) | -0.18 | inactive
CUEDC2 (GeneID 79004) | 0.37 | inactive
CUEDC2 (GeneID 79004) | -0.07 | inactive
CUEDC2 (GeneID 79004) | 0.13 | inactive

Laid out differently: entries from further up.
| gene | TNF reporter robust z-score | outcome |
| --- | --- | --- |
| GNG12 (GeneID 55970) | -0.22 | inactive |
| GNG12 (GeneID 55970) | 0.21 | inactive |
| LIN7B (GeneID 64130) | -1.18 | inactive |
| LIN7B (GeneID 64130) | -1.03 | inactive |
| LIN7B (GeneID 64130) | -1.21 | inactive |
| LIN7B (GeneID 64130) | -0.78 | inactive |
| EPHB6 (GeneID 2051) | -1.18 | inactive |
| EPHB6 (GeneID 2051) | -0.98 | inactive |
| EPHB6 (GeneID 2051) | -1.29 | inactive |
| EPHB6 (GeneID 2051) | 0.4 | inactive |
| MED25 (GeneID 81857) | 0.04 | inactive |
| MED25 (GeneID 81857) | -0.06 | inactive |
| MED25 (GeneID 81857) | -0.36 | inactive |
| MED25 (GeneID 81857) | -0.34 | inactive |
| LTBR (GeneID 4055) | 0.11 | inactive |
| LTBR (GeneID 4055) | 0.89 | inactive |

Additional reagents:
gene | TNF reporter robust z-score | outcome
ITGAL (GeneID 3683) | 0.75 | inactive
ITGAL (GeneID 3683) | -0.38 | inactive
ITGAL (GeneID 3683) | -0.25 | inactive
ITGAL (GeneID 3683) | 1.36 | inactive
SPACA3 (GeneID 124912) | -0.41 | inactive
SPACA3 (GeneID 124912) | -0.5 | inactive
SPACA3 (GeneID 124912) | -1.06 | inactive
SPACA3 (GeneID 124912) | 0.02 | inactive
GSTO2 (GeneID 119391) | -0.35 | inactive
GSTO2 (GeneID 119391) | -0.31 | inactive
GSTO2 (GeneID 119391) | 0.02 | inactive
GSTO2 (GeneID 119391) | 0.51 | inactive
H1-0 (GeneID 3005) | -0.02 | inactive
H1-0 (GeneID 3005) | -0.24 | inactive
H1-0 (GeneID 3005) | 0.57 | inactive
H1-0 (GeneID 3005) | -1.36 | inactive
STAT4 (GeneID 6775) | -0.74 | inactive
STAT4 (GeneID 6775) | -0.42 | inactive
STAT4 (GeneID 6775) | 0 | inactive
MDH1B (GeneID 130752) | 8.31 | active
MDH1B (GeneID 130752) | 0.26 | inactive
MDH1B (GeneID 130752) | -0.78 | inactive
MDH1B (GeneID 130752) | -0.38 | inactive
SNHG32 (GeneID 50854) | -0.02 | inactive
SNHG32 (GeneID 50854) | 0.26 | inactive
SNHG32 (GeneID 50854) | -0.14 | inactive
SNHG32 (GeneID 50854) | 0.81 | inactive
PSMB7 (GeneID 5695) | -0.38 | inactive
PSMB7 (GeneID 5695) | 0.73 | inactive
PSMB7 (GeneID 5695) | -0.22 | inactive
PSMB7 (GeneID 5695) | 1.03 | inactive
ATG10 (GeneID 83734) | -0.02 | inactive
ATG10 (GeneID 83734) | -0.58 | inactive
ATG10 (GeneID 83734) | 0.45 | inactive
ATG10 (GeneID 83734) | -0.11 | inactive
MAGEF1 (GeneID 64110) | 0.86 | inactive
MAGEF1 (GeneID 64110) | -0.37 | inactive
MAGEF1 (GeneID 64110) | -1.57 | active
MAGEF1 (GeneID 64110) | -0.89 | inactive
CCDC68 (GeneID 80323) | 3.39 | active
CCDC68 (GeneID 80323) | 1.6 | inactive
CCDC68 (GeneID 80323) | 2.64 | inactive
CCDC68 (GeneID 80323) | 1.87 | inactive
UCN (GeneID 7349) | 2.01 | inactive
UCN (GeneID 7349) | 1.86 | inactive
UCN (GeneID 7349) | -0.79 | inactive
UCN (GeneID 7349) | -0.68 | inactive
OR2T4 (GeneID 127074) | -0.6 | inactive
OR2T4 (GeneID 127074) | 0.05 | inactive
OR2T4 (GeneID 127074) | -0.98 | inactive
OR2T4 (GeneID 127074) | -0.8 | inactive
SETDB1 (GeneID 9869) | -0.04 | inactive
SETDB1 (GeneID 9869) | 0.78 | inactive
SETDB1 (GeneID 9869) | 1.25 | inactive
SETDB1 (GeneID 9869) | 0.68 | inactive
